These results are taken from doi:10.1101/2025.11.10.687237.

In this assay the target is T1, Slx5 (SUMO-targeted ubiquitin ligase) (budding yeast) (UniProt P32828).
T1 sequence: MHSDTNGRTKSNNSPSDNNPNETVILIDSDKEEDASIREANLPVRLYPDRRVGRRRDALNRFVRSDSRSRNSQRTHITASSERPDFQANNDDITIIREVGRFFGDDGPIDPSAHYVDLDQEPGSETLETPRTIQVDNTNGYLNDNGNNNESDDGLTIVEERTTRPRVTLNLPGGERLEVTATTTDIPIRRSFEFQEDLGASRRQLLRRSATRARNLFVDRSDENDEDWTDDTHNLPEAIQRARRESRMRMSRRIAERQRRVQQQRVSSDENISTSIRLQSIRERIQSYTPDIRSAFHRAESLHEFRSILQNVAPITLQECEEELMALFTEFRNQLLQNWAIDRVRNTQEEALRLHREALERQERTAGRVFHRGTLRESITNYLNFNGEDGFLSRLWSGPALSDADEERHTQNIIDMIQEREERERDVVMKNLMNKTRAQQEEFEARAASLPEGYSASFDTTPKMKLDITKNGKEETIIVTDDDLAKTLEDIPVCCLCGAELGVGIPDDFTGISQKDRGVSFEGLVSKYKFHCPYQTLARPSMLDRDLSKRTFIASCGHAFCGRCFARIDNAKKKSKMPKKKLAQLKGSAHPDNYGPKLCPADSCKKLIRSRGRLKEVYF
Put plainly: two-hybrid.

These are yes or no findings as the source states them, for the method shown. Some entries that bind do so weakly or less than the wild type.

B1: Cin8 (yeast kinesin-5) (protein, UniProt P27895 1-1000)
chain: MPAENQNTGQDRSSNSISKNGNSQVGCHTVPNEELNITVAVRCRGRNEREISMKSSVVVNVPDITGSKEISINTTGDTGITAQMNAKRYTVDKVFGPGASQDLIFDEVAGPLFQDFIKGYNCTVLVYGMTSTGKTYTMTGDEKLYNGELSDAAGIIPRVLLKLFDTLELQQNDYVVKCSFIELYNEELKDLLDSNSNGSSNTGFDGQFMKKLRIFDSSTANNTTSNSASSSRSNSRNSSPRSLNDLTPKAALLRKRLRTKSLPNTIKQQYQQQQAVNSRNNSSSNSGSTTNNASSNTNTNNGQRSSMAPNDQTNGIYIQNLQEFHITNAMEGLNLLQKGLKHRQVASTKMNDFSSRSHTIFTITLYKKHQDELFRISKMNLVDLAGSENINRSGALNQRAKEAGSINQSLLTLGRVINALVDKSGHIPFRESKLTRLLQDSLGGNTKTALIATISPAKVTSEETCSTLEYASKAKNIKNKPQLGSFIMKDILVKNITMELAKIKSDLLSTKSKEGIYMSQDHYKNLNSDLESYKNEVQECKREIESLTSKNALLVKDKLKSKETIQSQNCQIESLKTTIDHLRAQLDKQHKTEIEISDFNNKLQKLTEVMQMALHDYKKRELDLNQKFEMHITKEIKKLKSTLFLQLNTMQQESILQETNIQPNLDMIKNEVLTLMRTMQEKAELMYKDCVKKILNESPKFFNVVIEKIDIIRVDFQKFYKNIAENLSDISEENNNMKQYLKNHFFKNNHQELLNRHVDSTYENIEKRTNEFVENFKKVLNDHLDENKKLIMQNLTTATSAVIDQEMDLFEPKRVKWENSFDLINDCDSMNNEFYNSMAATLSQIKSTVDTSSNSMNESISVMKGQVEESENAISLLKNNTKFNDQFEQLINKHNMLKDNIKNSITSTHSHITNVDDIYNTIENIMKNYGNKENATKDEMIENILKEIPNLSKKMPLRLSNINSNSVQSVISPKKHAIEDENKSSENVDNEGSRKMLKIE
Turning to B1, the binding result is “binds”.
